Experimental data from publication PMC10967385, “Essential role of obscurin kinase-1 in cardiomyocyte coupling via N-cadherin phosphorylation” (JCI Insight, 2024).
Results are given in words; binding and its absence hold for the method and conditions named. Binding seen in cells or lysates may run through a third protein. Some results given as binding are weak or reduced against the parent protein; the word gives no strength.

Chains of the proteins cited; added tags and fusions are not shown. Lines headed by an entry give the natural chain unless they say otherwise; changes in a name come on top. A line that says so, or that is headed by a name, gives the form on record, which may keep a tag or linker. Residues count along the entry.
GST-Ncad(746-906)-WT, recombinant GST-tagged cytoplasmic domain of N-cadherin (P15116, residues 746-906): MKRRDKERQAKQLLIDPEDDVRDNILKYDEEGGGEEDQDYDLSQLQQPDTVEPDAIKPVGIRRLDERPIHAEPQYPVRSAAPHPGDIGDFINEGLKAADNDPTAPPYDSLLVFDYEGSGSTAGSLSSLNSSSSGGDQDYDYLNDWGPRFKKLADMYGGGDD
GST-Ncad(746-906)-SE, phosphomimic Ser-788-Glu GST-tagged cytoplasmic domain of N-cadherin (P15116, form named): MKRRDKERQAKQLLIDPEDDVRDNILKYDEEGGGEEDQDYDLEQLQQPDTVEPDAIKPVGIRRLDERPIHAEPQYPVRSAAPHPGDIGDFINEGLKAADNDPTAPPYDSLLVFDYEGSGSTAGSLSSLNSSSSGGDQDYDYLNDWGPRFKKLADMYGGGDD
GST-Ncad(746-906)-SA, phosphoablated Ser-788-Ala GST-tagged cytoplasmic domain of N-cadherin (P15116, form named): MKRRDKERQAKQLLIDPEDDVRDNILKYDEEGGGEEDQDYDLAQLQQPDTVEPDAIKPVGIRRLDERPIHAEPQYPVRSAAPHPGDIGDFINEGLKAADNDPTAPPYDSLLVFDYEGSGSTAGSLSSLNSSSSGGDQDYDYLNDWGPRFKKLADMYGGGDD
UniProt Q02248: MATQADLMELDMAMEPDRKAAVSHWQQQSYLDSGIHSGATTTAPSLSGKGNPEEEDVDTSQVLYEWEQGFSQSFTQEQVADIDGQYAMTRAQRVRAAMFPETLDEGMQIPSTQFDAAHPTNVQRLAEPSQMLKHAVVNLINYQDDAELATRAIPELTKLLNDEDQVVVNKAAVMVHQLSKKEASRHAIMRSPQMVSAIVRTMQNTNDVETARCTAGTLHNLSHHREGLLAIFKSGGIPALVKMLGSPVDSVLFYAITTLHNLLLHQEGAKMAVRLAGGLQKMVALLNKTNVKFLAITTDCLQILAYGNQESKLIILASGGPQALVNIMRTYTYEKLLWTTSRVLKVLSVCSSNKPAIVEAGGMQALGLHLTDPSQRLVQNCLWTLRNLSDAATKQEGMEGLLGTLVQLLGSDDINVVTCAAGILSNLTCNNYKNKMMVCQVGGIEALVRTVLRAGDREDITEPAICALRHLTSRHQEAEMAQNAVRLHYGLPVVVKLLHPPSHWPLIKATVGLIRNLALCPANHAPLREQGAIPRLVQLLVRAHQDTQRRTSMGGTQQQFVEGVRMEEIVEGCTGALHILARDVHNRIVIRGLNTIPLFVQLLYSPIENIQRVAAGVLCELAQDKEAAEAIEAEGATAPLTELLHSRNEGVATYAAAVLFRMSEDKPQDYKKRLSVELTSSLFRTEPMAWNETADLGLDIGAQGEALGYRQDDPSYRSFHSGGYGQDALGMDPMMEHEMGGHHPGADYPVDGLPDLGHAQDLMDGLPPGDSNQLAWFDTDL

Assays:
Assay in all cases: pull-down; GST fusion proteins immobilised on glutathione sepharose beads via their GST tag, incubated with 1 mg of 3-month-old adult mouse heart lysate at 4°C overnight; lysis buffer 10 mM Na3PO4 pH 7.2, 10 mM NaN3, 120 mM NaCl, 1 mM CaCl2, 1% NP-40; immunoblot of eluates; only the target purified
[1] = target: GST-Ncad(746-906)-SE, phosphomimic Ser-788-Glu GST-tagged cytoplasmic domain of N-cadherin (mouse) (UniProt P15116)
[2] = target: GST-Ncad(746-906)-WT, recombinant GST-tagged cytoplasmic domain of N-cadherin (mouse) (UniProt P15116)
[3] = target: GST-Ncad(746-906)-SA, phosphoablated Ser-788-Ala GST-tagged cytoplasmic domain of N-cadherin (mouse) (UniProt P15116)

Measured: binding

endogenous β-catenin (from UniProt Q02248 1-781)
binds: all assays above

B1: endogenous p120-catenin (protein, UniProt P30999 1-938)
chain: MDDSEVESTASILASVKEQEAQFEKLTRALEEERRHVSAQLERVRVSPQDANSLMANGTLTRRHQNGRFVGDADLERQKFSDLKLNGPQDHNHLLYSTIPRMQEPGQIVETYTEEDPEGAMSVVSVETTDDGTTRRTETTVKKVVKTMTTRTVQPVPMGPDGLPVDASAVSNNYIQTLGRDFRKNGNGGPGPYVGQAGTATLPRNFHYPPDGYGRHYEDGYPGGSDNYGSLSRVTRIEERYRPSMEGYRAPSRQDVYGPQPQVRVGGSSVDLHRFHPEPYGLEDDQRSMGYDDLDYGMMSDYGTARRTGTPSDPRRRLRSYEDMIGEEVPPDQYYWAPLAQHERGSLASLDSLRKGMPPPSNWRQPELPEVIAMLGFRLDAVKSNAAAYLQHLCYRNDKVKTDVRKLKGIPILVGLLDHPKKEVHLGACGALKNISFGRDQDNKIAIKNCDGVPALVRLLRKARDMDLTEVITGTLWNLSSHDSIKMEIVDHALHALTDEVIIPHSGWEREPNEDCKPRHIEWESVLTNTAGCLRNVSSERSEARRKLRECDGLVDALIFIVQAEIGQKDSDSKLVENCVCLLRNLSYQVHREIPQAERYQEALPTVANSTGPHAASCFGAKKGKDEWFSRGKKPTEDPANDTVDFPKRTSPARGYELLFQPEVVRIYISLLKESKTPAILEASAGAIQNLCAGRWTYGRYIRSALRQEKALSAIAELLTSEHERVVKAASGALRNLAVDARNKELIGKHAIPNLVKNLPGGQQNSSWNFSEDTVVSILNTINEVIAENLEAAKKLRETQGIEKLVLINKSGNRSEKEVRAAALVLQTIWGYKELRKPLEKEGWKKSDFQVNLNNASRSQSSHSYDDSTLPLIDRNQKSDKKPDREEIPMSNMGSNTKSLDNNYSTLNERGDHNRTLDRSGDLGDMEPLKGAPLMQKI
binds: all assays above
